In PMC10265526:
Results are given in words; binding and its absence hold for the method and conditions named. In cells and extracts the contact can be indirect. Some results given as binding are weak or reduced against the parent protein; the word gives no strength. For some assays here: Tags and fused reporters may be left off the sequences shown. One block for each binder: values may come before it.

Columns and labels:
[1] = substrate: T1, OSBP (mouse (endogenous in N2a)) (UniProt Q3B7Z2); assay: co-IP; N2a cells treated with ethanol (ETOH, control) for 36 h, lysed in RIPA buffer; OSBP antibody as bait on protein A/G magnetic beads, overnight at 4 °C; precipitate analysed by Western blot
T1 sequence: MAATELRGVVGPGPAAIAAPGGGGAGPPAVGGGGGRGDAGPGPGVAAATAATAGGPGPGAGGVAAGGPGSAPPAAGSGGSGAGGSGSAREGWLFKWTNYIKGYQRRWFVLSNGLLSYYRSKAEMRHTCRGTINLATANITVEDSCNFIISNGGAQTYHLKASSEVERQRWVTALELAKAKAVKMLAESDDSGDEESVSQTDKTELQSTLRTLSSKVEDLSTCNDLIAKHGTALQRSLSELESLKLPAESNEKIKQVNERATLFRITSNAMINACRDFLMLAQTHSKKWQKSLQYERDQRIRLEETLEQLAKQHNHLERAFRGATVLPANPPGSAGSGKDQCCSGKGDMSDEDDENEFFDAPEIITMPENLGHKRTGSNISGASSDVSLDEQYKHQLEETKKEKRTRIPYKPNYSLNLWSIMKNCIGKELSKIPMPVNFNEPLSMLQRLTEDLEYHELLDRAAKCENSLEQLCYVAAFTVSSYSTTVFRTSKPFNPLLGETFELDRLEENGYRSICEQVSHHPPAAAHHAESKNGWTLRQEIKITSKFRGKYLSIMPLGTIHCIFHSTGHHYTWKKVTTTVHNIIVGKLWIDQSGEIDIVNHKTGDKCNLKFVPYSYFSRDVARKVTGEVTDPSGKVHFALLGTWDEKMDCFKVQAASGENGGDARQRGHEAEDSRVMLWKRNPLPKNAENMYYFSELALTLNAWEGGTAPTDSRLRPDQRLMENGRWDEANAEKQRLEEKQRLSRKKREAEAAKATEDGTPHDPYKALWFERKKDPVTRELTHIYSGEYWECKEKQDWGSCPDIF

FLAG-VAPA = target: T2, FLAG-VAPA (UniProt Q9WV55); assay: co-IP; N2a cells transfected with FLAG-VAPA for 12 h, then treated with different concentrations of 24HC for 24 h; FLAG antibody as bait; precipitate analysed by Western blot
T2 sequence: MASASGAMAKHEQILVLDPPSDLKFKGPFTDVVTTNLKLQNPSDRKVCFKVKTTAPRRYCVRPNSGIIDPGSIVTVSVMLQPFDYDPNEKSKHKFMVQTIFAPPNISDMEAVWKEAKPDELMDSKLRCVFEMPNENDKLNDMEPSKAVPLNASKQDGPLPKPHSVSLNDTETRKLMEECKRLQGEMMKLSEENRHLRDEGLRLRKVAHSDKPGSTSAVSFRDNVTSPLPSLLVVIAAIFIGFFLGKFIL

binding [1]: binds
B1: vesicle-associated membrane protein-associated protein A (VAPA) (protein, UniProt Q9WV55 1-249)
chain: T2 sequence

binding (FLAG-VAPA): binds
B2: OSBP (protein, UniProt Q3B7Z2 1-805)
chain: T1 sequence
